# Literature values in patent US7662581B1, “Eg5 co-crystals” (Novartis Vaccines and Diagnostics, Inc., priority 2003, dated 2010).
# At least one structure is not confirmed: it was looked up by name or label, or the drawing left a doubt.
# System: cells
structure (smiles),measurement,value
CCOC(=O)C1=C(C)NC(=S)NC1c1cccc(O)c1 (centres unmarked) [monastrol],arrest of cells / spindle phenotype,arrest cells with monopolar spindles
same,effect on microtubule polymerization,without affecting microtubule polymerization
